# Primary screen of a compound library

The chains behind the UniProt entries cited, without tags or fusion partners.
UniProt E9BF75, entry or part of it: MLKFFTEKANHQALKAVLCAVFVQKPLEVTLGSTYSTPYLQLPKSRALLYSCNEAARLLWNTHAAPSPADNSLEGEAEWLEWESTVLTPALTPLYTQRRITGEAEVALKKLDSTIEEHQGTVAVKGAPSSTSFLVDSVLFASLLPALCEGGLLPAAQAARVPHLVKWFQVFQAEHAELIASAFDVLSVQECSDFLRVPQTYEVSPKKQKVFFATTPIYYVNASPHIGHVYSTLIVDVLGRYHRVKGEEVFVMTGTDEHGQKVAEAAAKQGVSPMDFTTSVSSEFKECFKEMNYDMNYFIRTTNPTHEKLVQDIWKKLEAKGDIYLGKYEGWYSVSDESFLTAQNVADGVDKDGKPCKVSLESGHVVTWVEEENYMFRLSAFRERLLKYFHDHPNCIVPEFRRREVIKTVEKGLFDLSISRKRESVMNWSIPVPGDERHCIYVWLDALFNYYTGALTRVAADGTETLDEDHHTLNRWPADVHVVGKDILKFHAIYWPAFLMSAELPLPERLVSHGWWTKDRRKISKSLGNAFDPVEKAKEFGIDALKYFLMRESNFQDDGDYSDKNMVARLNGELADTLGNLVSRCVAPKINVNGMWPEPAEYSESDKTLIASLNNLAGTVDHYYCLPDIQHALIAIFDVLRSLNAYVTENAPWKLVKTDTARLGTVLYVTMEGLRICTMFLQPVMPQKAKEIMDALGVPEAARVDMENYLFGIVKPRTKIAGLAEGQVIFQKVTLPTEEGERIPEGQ

Measurements from “University of Dundee, Small-Polar-MMV Screening Library” (2021), ChEMBL document CHEMBL3988442.

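Methionyl-tRNA synthetase (putative), Leishmania donovani (UniProt E9BF75). Primary screen of methionyl-tRNA synthetase; the read-out is not stated. The test concentration is not given. Values are per cent inhibition. Size under these conditions: about 68,000 compounds, about 24 of them at 50% or above in at least one test.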

All values are in %. The record does not define 0% and 100%; most values in the screen are far below 50% and negative numbers occur (in some assays of this library far below -100). This is an unselected part of the compounds tested.

SMILES	Inhibition
O=C(O)c1nnn(-c2ccccc2)c1-c1ccncc1	8.746%
O=C(c1cc(=O)c(OCc2ccccc2F)co1)N1CCSCC1	9.913%
CCS(=O)(=O)N1Cc2cncn2CC(C(=O)NCC2CC2)C1 (centres unmarked)	9.384%
COC(=O)c1sc(C(NC(=O)c2ccccc2)C2CC2)nc1C (centres unmarked)	18.82%
Cc1ccccc1OCCN(C)Cc1noc(CC(C)C)n1	10.53%
CCOCC1CN(CCc2ccccc2)Cc2c1cnn2C (centres unmarked)	-6.529%
CC(C)c1ncc(S(C)(=O)=O)c(C2CCCNC2)n1 (centres unmarked)	18.52%
CCC(=O)N1CCC2(CC1)C(c1cccnc1)CC(=O)N2CCOC (centres unmarked)	3.636%
CSc1ncccc1C(=O)N1CCC(c2nc3c(C)cccc3[nH]2)CC1	7.874%
Cc1ccc(C(=O)Nc2c(C(=O)N(C)C)nn(C)c2C)cc1C	7.286%
Cc1cc(C)n2ncc(CN3CCC(Cn4cc(CO)nn4)CC3)c2n1	9.358%
CN1CCc2nc(N(C)C)nc(N3CCC(O)CC3)c2C1	5.694%
CC1(C)COCCN1C(=O)Cc1cc(Cl)c2c(c1)OCCO2	8.13%
COCC(NC(=O)NCc1cccc(Cl)c1)c1ccco1 (centres unmarked)	15.62%
Cc1noc(C)c1CN1CC[C@H]2OCC[C@@]2(C(=O)NCC2CC2)C1	5.333%
O=C(Nc1cc(C(F)(F)F)ccc1Cl)c1ccc(N2CCCC2)nn1	-24.64%
Cc1ccc(C(=O)N2CCCN(Cc3cscn3)CC2)o1	16.02%
CN(C)Cc1ccnc(NS(=O)(=O)CCc2ccccc2)c1	3.509%
CC(=O)Nc1ccc(-c2cn(CCn3c(C)cc(C)nc3=O)nn2)cc1	5.842%
CC(C)C(=O)N1CCC(NCc2c(C(C)C)nn(C)c2N(C)C)CC1	14.37%
CCN(C)c1ncnc2c1CCN(Cc1ccsc1)CC2	7.5%
Cc1cc(CC(=O)NCc2ccnc(OCC(F)(F)F)c2)no1	6.122%
O=C(C1CCOCC1)N1C[C@@H]2[C@@H](C1)OCC(=O)N2Cc1ccncc1	10.5%
COC(=O)[C@H]1C[C@@H](O)CCN1S(=O)(=O)c1c(C)cc(OC)c(C)c1C	9.278%
O=C(Nc1ccccc1)[C@H]1O[C@H](CCN2CCCCC2)CC[C@@H]1O	6.015%
Cc1cc(N2CCC3(CCC(=O)N(CCO)C3)CC2)nc(N(C)C)n1	0.7692%
CCC(CC)c1nnc(NC(=O)NC(C)Cn2cccn2)s1 (centres unmarked)	6.818%
Cc1ncnc(NCCCN2CCCCC2CO)c1C (centres unmarked)	20.72%
CN(c1nccc(-c2cnc3sc(Cl)cn3c2=O)n1)C1CCCCC1	13.35%
CCCn1cc(NC(=O)c2ccc(S(=O)(=O)CC)cc2)ccc1=O	5.645%
CCC(Nc1ccc(Oc2cccc(C#N)c2)cc1)C(N)=O (centres unmarked)	15.19%
Cn1cc(CN2CCC(F)(F)C3(CCN(c4ccccn4)C3)C2)cn1 (centres unmarked)	5.519%
O=C(NCCN1CCc2ccccc2C1)c1scnc1Cl	12.6%
Cc1nnc2ccc(NCC3(N4CCCCC4)CCOCC3)nn12	9.774%
Cc1nc(Nc2nncs2)cc(C2CCCN2C)n1 (centres unmarked)	-0.6472%
CCSc1ncc(CN2CCC(O)(CN3CCOCC3)C(C)(C)C2)cn1 (centres unmarked)	13.91%
C1CCC(CN2Cc3nnn(CC4CC4)c3C(COCC3CC3)C2)C1 (centres unmarked)	10.93%
Cc1cccc(C2(C(=O)NS(=O)(=O)c3cnn(C)c3)CCCC2)c1	6.87%
CSc1cccc(CC(=O)N[C@@H]2CCNC[C@H]2O)c1	1.882%
Cc1cc(C(=O)Nc2n[nH]c(C3CC3)n2)c2c(C)nn(C)c2n1	12.4%
OC(CN1CCN(Cc2cc(F)ccc2F)CC1)C1CC1 (centres unmarked)	13.64%
Cc1cnc(N2CCC3(CC2)CC(NS(C)(=O)=O)CO3)nc1 (centres unmarked)	15.33%
CCOCC1CN(S(C)(=O)=O)Cc2ncn(CC3CC3)c21 (centres unmarked)	4.089%
Cc1nnc(NC(=O)N2CCCCC2CCO)s1 (centres unmarked)	11.72%
Cc1nc(C)c(C)c(NCCSc2ccccn2)n1	14.49%
CC(C)Cc1noc(COc2ccc(N(C)C(N)=O)cc2)n1	10.14%
Fc1cccc(CNCC2Cn3nncc3CO2)c1 (centres unmarked)	8.772%
Cc1nccn1CCC1CCCCN1C(=O)c1ccc2[nH]nnc2c1 (centres unmarked)	16.59%
CCC(N)c1ccccc1OCC(=O)N1CCCC1 (centres unmarked)	17.71%
Cc1cccc(COC[C@H]2CC[C@H]3[C@H](CCN3C(=O)CC3CC3)O2)n1	14.29%
Fc1ccccc1CNc1ccnc(C2CCNCC2)c1	2.1%
Cc1cc(-c2cnc(NC3CCCC3)nc2-c2ccoc2)on1	6.25%
COc1ccc(CN(Cc2c[nH]cn2)CC2CCCO2)c(OC)c1 (centres unmarked)	11.98%
COc1ccc(-c2nnc(CNCCn3cccn3)o2)cc1	19.44%
Cc1cc(C)n(CC2CN(Cc3cccnc3)CCO2)n1 (centres unmarked)	15.53%
Cc1ccc(Cl)cc1S(=O)(=O)NCc1cnc(N(C)C)n1C	16.48%
COCCNc1c(-c2ccc(C)cc2)c(=O)c1=O	8.168%
c1cc(-c2cn[nH]c2)ccc1CN1CCCCC1	13.56%
CC(NCCN1CCC(N(C)C)CC1)c1ccc(F)cc1N(C)C (centres unmarked)	2.446%
COc1cccc(C(=O)N2CCOC3(CCCN(C(C)=O)C3)C2)c1 (centres unmarked)	8.458%
CN(C)c1nccc(C2CN(C(=O)CO)C2)n1	20.65%
CCN1CCO[C@@H]2CN(C(=O)NCc3ccccc3)CC[C@@H]2C1	16.02%
CO[C@H]1CN(S(=O)(=O)c2ccc(F)cc2)C[C@@]12CCCO2	-5.063%
Cc1ccc(CN2C[C@H](N3CCOCC3)[C@@H]3OCCC[C@@H]32)o1	12.71%
O=C(c1cncc(NCC2COc3ccccc3C2)n1)N1CCCC1 (centres unmarked)	13.55%
O=C1COC2(CCN(Cc3ccsc3)CC2)CN1	11.24%
COc1ccc(S(=O)(=O)Cc2noc(CC(C)C)n2)cc1	7.102%
Cc1ccc(CCNC(=O)Cn2nc(C)n(Cc3ccccc3)c2=O)o1	5%
CC(C)n1cnc2c(-c3cccnc3)nc(C3CCNCC3)cc21	3.361%
O=C(COCc1ccccc1Cl)N1CCN(c2ccc(Br)cn2)CC1	9.946%
CNC(=O)CCNC(=O)c1cccc(Cn2nc(C)cc2C)c1	12.39%
CN(Cc1nc2ccccc2c(=O)[nH]1)C[C@@H]1CCCN2CCCC[C@H]12	13.49%
COc1ccc(NC(=O)CNc2cccc3c2CCCC3)c(OC)c1	4.833%
CO[C@@H]1CCN(c2nnc(C)s2)C[C@@H]1Cc1cccc(C)c1	15.31%
Cc1cc(C)c(C(=O)N2CCN(c3ncccc3C#N)CC2)c(=O)[nH]1	7.453%
CNC(=O)[C@H]1CC[C@@H]2[C@@H](CCN2C(=O)N(C)C)O1	6.884%
CCO[C@@H]1CCN(C(=O)c2cscn2)[C@@H]1Cc1cnn(C)c1	12.2%
COc1ccc(-c2cc(C(=O)NCCCn3ccnc3C)n(C)n2)cc1	13.29%
CCC(CC)C(=O)N(C)CC(=O)Nc1ccc(Br)cn1	26.88%
COC1CCN(C(=O)c2c(Cl)c3ccccc3n2C)CC1	18.54%
c1cnc(N2CCO[C@H]3[C@H](OCC4CCOCC4)CC[C@@H]32)nc1	5.714%

The last 8 entries again:

| SMILES | Inhibition |
|---|---|
| `CO[C@@H]1CCN(c2nnc(C)s2)C[C@@H]1Cc1cccc(C)c1` | 15.31% |
| `Cc1cc(C)c(C(=O)N2CCN(c3ncccc3C#N)CC2)c(=O)[nH]1` | 7.453% |
| `CNC(=O)[C@H]1CC[C@@H]2[C@@H](CCN2C(=O)N(C)C)O1` | 6.884% |
| `CCO[C@@H]1CCN(C(=O)c2cscn2)[C@@H]1Cc1cnn(C)c1` | 12.2% |
| `COc1ccc(-c2cc(C(=O)NCCCn3ccnc3C)n(C)n2)cc1` | 13.29% |
| `CCC(CC)C(=O)N(C)CC(=O)Nc1ccc(Br)cn1` | 26.88% |
| `COC1CCN(C(=O)c2c(Cl)c3ccccc3n2C)CC1` | 18.54% |
| `c1cnc(N2CCO[C@H]3[C@H](OCC4CCOCC4)CC[C@@H]32)nc1` | 5.714% |